Results as given in patent EP2923697B1, “Extract and novel isolated compound from Aspergillus terreus for treatment of mouth microbial infections” (King Saud University, priority 2014, dated 2015).
Converted amounts (≈) assume the structure as drawn.

System: Candida albicans
Experiment: MIC determination, micro-dilution method
Type: cell-based
Conditions: read-out: Minimum Inhibitory Concentration
Excerpt: Mouth microbial representatives including unicellular fungi; Candida albicans (RCMB 05382), Candida glabrata (RCMBA 05386), Candida parapsilosis (RCMBA 06002), Candida tropicalis (RCMB 05384), Gram-positive bacteria; Lactobacillus acidophilus (RCMBA 4267), Streptococcus gordonii (RCMBA 2004), Streptococcus mutans (RCMBA 4131), and Gram-negative bacteria; Pseudomonas aeruginosa (RCMBA 1002) were obtained from the Regional Center for Mycology and Biotechnology (RCMB), Al-Azhar University, Cairo, Egypt, as test organisms.
The minimum inhibitory concentration (MIC) was determined by micro-dilution method using serially diluted (2 folds) extract and isolated compound. MIC of the extract was determined by dilution of extract and isolated compound of concentrations of 0.0-1000 µg/ml. Equal volume of each extract and nutrient broth were mixed in a test tube. Specifically 0.1 ml of standardized inoculum (1-2 X 10^7 CFU/ml) was added in each tube. The tubes were incubated at 37°C for 24-48 h. Two control tubes containing the growth medium, saline and the inoculum were maintained for each test batch. The lowest concentration (highest dilution) of the extract that produced no visible microbial growth (no turbidity) when compared with the control tubes were regarded as MIC.

- MIC: 1.95 µg/mL (≈ 2.11 µM)
Compound: C[C@@H]1[C@H](O)[C@@H](C)/C=C/C=C/C=C/C=C/C=C/C=C/C=C/[C@H](O[C@@H]2O[C@H](C)[C@@H](O)[C@H](N)[C@@H]2O)C[C@@H]2O[C@](O)(C[C@@H](O)C[C@@H](O)[C@H](O)CC[C@@H](O)C[C@@H](O)CC(=O)O[C@H]1C)C[C@H](O)[C@H]2C(=O)O [Amphotericin B, reference compound]
